Source: PubChem BioAssay AID1645850 (National Center for Advancing Translational Sciences (NCATS), 2021)
The shares of active, inactive and inconclusive entries below differ from those in the screen. Potencies of inconclusive entries are doubtful fits and often do not repeat. Active and inactive are the calls of the source. The call rests on the fitted dose curve; in most records, active means well fitted curve in the direction sought with a large enough effect in the repeat runs; inconclusive means weak or mixed curves, or another doubt; inactive means no such curve, though single readings can be large or run the other way.

experiment: Comparison of Janus kinase inhibitors to block the type I interferon pathway in human skeletal muscle cells: CTG Counterscreen; conditions: human skeletal muscle cells viability, CellTiter-Glo ATP luminescence; series mostly up to 45.9 µM; activity change, negative = cytotoxicity: at the top concentration
From the text: Assay Submitter (PI): Travis B. Kinder Ph.D.
National Center for Advancing Translational Sciences (NCATS)
The family of Janus kinases (JAK1, JAK2, JAK3, TYK2) mediate signal transduction from cytokine receptors through phosphorylation and activation of intracellular signaling pathways and transcription factors. Small molecule antagonists of JAKs (jakinibs) have been developed with varying selectivity for the use in malignancies and immune regulation. […] We have assayed a library of 48 jakinibs for their ability to inhibit the JAK1/TYK2-dependent type I interferon (IFN) - major histocompatibility complex (MHC) class I pathway in human skeletal muscle cells genome-engineered to fuse a pro-luminescent HiBiT peptide to endogenous MHC class I.
The assay utilized CRISPR/Cas9 genome-engineered immortalized human myoblasts, C25cl48, where a pro-luminescent reporter HiBit was fused to the C-terminus of endogenous MHC class I allele HLA-B*08:01 (HLA-B HiBit myoblasts) (Kinder et al., 2020). HiBit is an 11 amino acid fragment of NanoLuc luminescent reporter (Promega Corporation), and when complexed to the larger LgBit fragment, the reconstituted enzyme produces light in the presence of furimazine substrate. Briefly, HLA-B HiBit myoblasts were plated into 1536-well plates, treated with 4.0 ng/ml human IFN-beta and 48 jakinibs in an 11-point, 1:3 titration with a high final concentration of 46 uM. After 24 hrs of treatment, cells were assayed by CellTiter-Glo Luminescent Cell Viability Assay (Promega) and luminescence measured by a ViewLux 1430 Ultra HTS (Perkin Elmer).
1. Kinder TB, Dranchak PK, Inglese J. High-Throughput Screening to Identify Inhibitors of the Type I Interferon-Major Histocompatibility Complex Class I Pathway in Skeletal Muscle. ACS Chem Biol. 2020 Jul 17;15(7):1974-1986. doi: 10.1021/acschembio.0c00343
PROTOCOL TABLE (as described by Inglese et al., 2007)
SEQUENCE No. (e.g., 1, 2, 3, etc.); PARAMETER (e.g., Cells, Incubation, Reagent, etc.); VALUE; DESCRIPTION
1a; Cells; 5 uL; Seed 250 cells/well with a Multidrop Combi (Thermo Scientific) into two Greiner 1536 well white/solid bottom, high base, TC plates (789173-F) in 5 ul/well of growth medium (GM) without dexamethasone into columns 1+2
1b; Cells; 5 uL; Seed 250 cells/well with a Multidrop Combi (Thermo Scientific) into two Greiner 1536 well white/solid bottom, high base, TC plates (789173-F) in 5 ul/well of GM without dexamethasone + 4 ng/ml IFN-beta into columns 3 - 48. Add metal lids with gas-exchange holes.
2; Incubate; 30 min; Incubate at 37C, 5% CO2, 95% RH
3; Compounds; 23 nl; Transfer DMSO control and library compounds in DMSO with Pin Tool (Wako)
4; Incubate; 24 hrs; Incubate at 37C, 5% CO2, 95% RH
5; Dispense; 2.5 ul; Add CellTiter Glo lytic reagent with a BioRAPTR FRD (Beckman Coulter)
6; Incubate; 10 min; Incubate in the dark at ambient temperature for lysis
7; Detector; 5 sec; Measure luminescence with ViewLux 1430 Ultra HTS (Perkin Elmer). Settings: Exposure = 2 sec, Gain = High, Speed = Slow, Binning = 2X
NOTES (numbers refer to sequence above)
1; HLA-B HiBit myoblasts cultured in GM - 4:1 ratio DMEM Glutamax (Thermo Fisher, 10566) : M199 (Thermo Fisher, 11150), 10% FBS (Hyclone Standard), 1% Pen/Strep, 50 ug/ml fetuin, 10 ng/ml hEGF, 1 ng/ml bhFGF, 10 ug/ml insulin, 0.4 ug/ml dexamethasone (supplements from Promocell, C-39360). […] Recombinant human IFN-beta (Peprotech, 300-02BC) was reconstituted in water, diluted in GM, and aliquots stored at -80C until day of use.
3; Control plate contained DMSO in columns 1 and 4, digitonin (Sigma, D141) cytotoxicity control in DMSO at 20 mM in column 2, and ruxolitinib (Selleckchem, S1378) inhibitor control in DMSO 16-point, 1:2 titration, high concentration = 17 mM in column 3. Digitonin and ruxolitinib stocks were reconstituted at 20 and 50 mM in DMSO and aliquots stored at -20C. […]

Row | SMILES | activity change, negative = cytotoxicity | Potency
1 | O=C(Nc1ccc(-c2ccnc(Nc3ccc(N4CCOCC4)cc3)n2)cc1)[C@@H]1CCCN1 | inactive: 12.2% | 
2 | C[C@@]12O[C@@H](C[C@]1(O)CO)n1c3ccccc3c3c4c(c5c6ccccc6n2c5c31)CNC4=O |  | inconclusive: 0.0966 µM [inhibitor]
3 | Cc1cnc(Nc2cccc(CN3CCOCC3)c2)nc1Nc1cccc(S(=O)(=O)NC(C)(C)C)c1 |  | inconclusive: 7.11 µM [inhibitor]
4 | CC[C@@H]1CN(C(=O)NCC(F)(F)F)C[C@@H]1c1cnc2cnc3[nH]ccc3n12 | inactive: -28.6% | 
5 | Fc1cc(-c2cccc3ncc(-c4cnn(C5CCNCC5)c4)nc23)cc(F)c1CN1CCOCC1 |  | inconclusive: 27.2 µM [inhibitor]
6 | Cc1cnc(Nc2ccc(CN3CCOCC3)cc2)nc1Nc1cccc(S(=O)(=O)NC(C)(C)C)c1 |  | inconclusive: 7.39 µM [inhibitor]
7 | O=C(Nc1nc2cccc(-c3ccc(CN4CCS(=O)(=O)CC4)cc3)n2n1)C1CC1 |  | inconclusive: 27.8 µM [inhibitor]
8 | Cc1cnc(Nc2ccc(OCCN3CCCC3)cc2)nc1Nc1cccc(S(=O)(=O)NC(C)(C)C)c1 |  | inconclusive: 2.25 µM [inhibitor]
9 | Cc1cc(Nc2nc(N[C@@H](C)c3ccc(F)cc3)c(C#N)cc2F)n[nH]1 |  | inconclusive: 2 µM [inhibitor]
10 | CCCS(=O)(=O)NC1CC(N(C)c2ncnc3[nH]ccc23)C1 (stereo not given) | inactive: 5.82% | 
11 | Cc1cc(Nc2nc(N[C@@H](C)c3ncc(F)cn3)ncc2Cl)n[nH]1 |  | inconclusive: 4 µM [inhibitor]
12 | NC(=O)c1nc(-c2c(F)cccc2Cl)oc1Nc1ccc(C(=O)N2CCOCC2)cc1 |  | inconclusive: 5.43 µM [inhibitor]
13 | N#CC[C@H](C1CCCC1)n1cc(-c2ncnc3[nH]ccc23)cn1 | inactive: 8.46% | 
14 | CCC[C@H](NC(=O)/C(C#N)=C/c1cccc(Br)n1)c1ccccc1 |  | inconclusive: 26.2 µM [inhibitor, single point]
15 | CC(C)N(CCC(=O)c1ccc2ccccc2c1)Cc1ccccc1 |  | inconclusive: 35.6 µM [inhibitor]
16 | CCS(=O)(=O)N1CC(CC#N)(n2cc(-c3ncnc4[nH]ccc34)cn2)C1 | inactive: 1.82% | 
17 | Cc1cnc(Nc2ccc(N3CCN(C)CC3)cc2)nc1Nc1cccc(S(=O)(=O)NC(C)(C)C)c1 |  | inconclusive: 1.59 µM [inhibitor]
18 | CC1(C)CN(C(=O)c2ccc(-c3cccc4nc(NC(=O)C5CC5)nn34)cc2)C1 | inactive: 7.08% | 
19 | NC(=O)c1cnc2[nH]ccc2c1NC1C2CC3C[C@H]1CC(O)(C3)C2 (stereo not given in full) | inactive: 1.18% | 
20 | C1=C/COCc2cc(ccc2OCCN2CCCC2)Nc2nccc(n2)-c2cccc(c2)COC/1 |  | inconclusive: 13.1 µM [inhibitor]
21 | COc1nsc(NC(=O)N2C[C@H]3CC(N(C)c4ncnc5[nH]ccc45)C[C@H]3C2)n1 (stereo not given in full) |  | inconclusive: 1.75 µM [inhibitor]
22 | Cc1cc(Nc2cc(NC(=O)c3c(Cl)cccc3Cl)ccn2)nc(N)n1 |  | inconclusive: 4 µM [inhibitor]
23 | C=CC(=O)N1C[C@H](Nc2ncnc3[nH]ccc23)CC[C@@H]1C |  | inconclusive: 3.43 µM [inhibitor]
24 | N#CCC1(n2cc(-c3ncnc4[nH]ccc34)cn2)CN(C2CCN(C(=O)c3ccnc(C(F)(F)F)c3F)CC2)C1 |  | inconclusive: 3.49 µM [inhibitor]
25 | CC(=O)Nc1cc(Oc2ccc3c(nc(Nc4ccc(F)cc4F)n3C)c2C)ccn1 |  | inconclusive: 0.208 µM [inhibitor]

Looked up one by one from the entries so far (2):
Row | SMILES | activity change, negative = cytotoxicity | Potency
2 | C[C@@]12O[C@@H](C[C@]1(O)CO)n1c3ccccc3c3c4c(c5c6ccccc6n2c5c31)CNC4=O |  | inconclusive: 0.0966 µM [inhibitor]
20 | C1=C/COCc2cc(ccc2OCCN2CCCC2)Nc2nccc(n2)-c2cccc(c2)COC/1 |  | inconclusive: 13.1 µM [inhibitor]
